Taken from: PubChem BioAssay AID743454 (Peter MacCallum Cancer Centre, 2014)
The whole screen tested about 18,000 reagents; shown is a part drawn at random. 450 of them (2.5%) were called active. 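Single biological run; no consistent viability z cut-off exists, so the class columns, not z-scores, define the calls.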

- Test: 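Genes whose loss kills vorinostat-resistant colon cancer cells under vorinostat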 (primary screen)
- Cell system: human HCT116-VR colon cancer cells, selected for vorinostat resistance
- Knock-down reagent: siRNA pool against human genes, 40 nM siRNA pool
- Duration: vorinostat for 24 h, read-out about 72 h after transfection
- Treatment: vorinostat at 2.5 µM final
- Measurement: 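Two measures, CellTiter-Fluor viability and luminescent caspase 3/7 activity, each as fold change against same-plate mock wells, mean of duplicates, then screen-wide robust z-score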
- Direction: viability robust z-score: higher = more viable cells than screen typical; caspase robust z-score: higher = more caspase 3/7 activity than screen typical
- Call rule: 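a knock-down is a hit when classed RV1 or RV2 for lowered viability, or CA1 or CA2 for caspase activation; those lethal without drug were dropped; hits were retested singly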

no.	Target gene	viability hit class	caspase hit class	viability robust z-score	caspase robust z-score	Outcome
1	SKIC3 (SKI3 subunit of superkiller complex)	no change	no change	-0.52	2.15	inactive
2	RFPL3 (ret finger protein like 3)	no change	no change	-2.61	0.91	inactive
3	PRPS1 (phosphoribosyl pyrophosphate synthetase 1)	no change	no change	-0.42	1.22	inactive
4	PCED1B (PC-esterase domain containing 1B)	no change	no change	0.56	-0.59	inactive
5	SPNS3	no change	no change	-0.06	1.2	inactive
6	OR5A1 (olfactory receptor family 5 subfamily A member 1)	no change	no change	1.08	0.18	inactive
7	FAM156A (family with sequence similarity 156 member A)	no change	no change	-1.47	-0.36	inactive
8	MKKS (MKKS centrosomal shuttling protein)	no change	no change	-0.84	0.29	inactive
9	NCOR2 (nuclear receptor corepressor 2)	no change	no change	-1.29	2.49	inactive
10	PEX16 (peroxisomal biogenesis factor 16)	no change	no change	-0.44	1.03	inactive
11	ADORA2B (adenosine A2b receptor)	no change	no change	1.26	-0.28	inactive
12	RGS18 (regulator of G protein signaling 18)	no change	CA1 (caspase activation)	1.03	7.22	active
13	DEUP1 (deuterosome assembly protein 1)	no change	no change	1.4	0.13	inactive
14	TMPRSS5 (transmembrane serine protease 5)	no change	no change	-0.84	0.65	inactive
15	GPSM3 (G protein signaling modulator 3)	no change	no change	0.52	1.12	inactive
16	C7orf25 (chromosome 7 open reading frame 25)	no change	no change	0.15	0.06	inactive
17	SETBP1 (SET binding protein 1)	no change	no change	-0.59	-0.88	inactive
18	ENSA (endosulfine alpha)	no change	no change	-0.76	-0.48	inactive
19	NAA30 (N-alpha-acetyltransferase 30, NatC catalytic subunit)	no change	no change	-0.2	0.26	inactive
20	RC3H1 (ring finger and CCCH-type domains 1)	no change	no change	-1.66	0.53	inactive
21	C1QBP (complement C1q binding protein)	no change	no change	0.6	0.43	inactive
22	IRX2-DT (IRX2 divergent transcript)	no change	CA1 (caspase activation)	0.42	5.45	active
23	MOCS2 (molybdenum cofactor synthesis 2)	no change	no change	0.42	-0.74	inactive
24	CSRP3 (cysteine and glycine rich protein 3)	no change	no change	0	-0.28	inactive
25	JAK3 (Janus kinase 3)	no change	no change	0.11	1.23	inactive
26	PLIN4 (perilipin 4)	no change	no change	0.44	-0.42	inactive
27	CEP70 (centrosomal protein 70)	no change	no change	-0.02	0.26	inactive
28	REX1BD (required for excision 1-B domain containing)	no change	no change	-0.38	-0.48	inactive
29	KLHDC8B (kelch domain containing 8B)	no change	no change	0.01	4.64	inactive
30	TXNDC15 (thioredoxin domain containing 15)	no change	no change	0.16	-0.2	inactive
31	ORAI2 (ORAI calcium release-activated calcium modulator 2)	no change	no change	-1.58	-0.95	inactive
32	FCSK (fucose kinase)	no change	no change	-1.48	-0.03	inactive
33	TGFBR2 (transforming growth factor beta receptor 2)	no change	no change	0.08	2.12	inactive
34	FCGR2A (Fc gamma receptor IIa)	no change	no change	0.63	2.11	inactive
35	CHCHD5 (coiled-coil-helix-coiled-coil-helix domain containing 5)	no change	no change	-0.1	1.64	inactive
36	CTBS (chitobiase)	no change	no change	-1.4	0.02	inactive
37	MYF5 (myogenic factor 5)	no change	no change	-0.12	3.13	inactive
38	PRF1 (perforin 1)	no change	no change	0.76	0.82	inactive
39	KRTAP4-1 (keratin associated protein 4-1)	no change	no change	-1.54	2.73	inactive

Records listed so far whose target name begins with F or f:
Target gene	viability hit class	caspase hit class	viability robust z-score	caspase robust z-score	Outcome
FAM156A (family with sequence similarity 156 member A)	no change	no change	-1.47	-0.36	inactive
FCSK (fucose kinase)	no change	no change	-1.48	-0.03	inactive
FCGR2A (Fc gamma receptor IIa)	no change	no change	0.63	2.11	inactive
